Measured values: PubChem BioAssay AID2417 (National Center for Advancing Translational Sciences (NCATS), 2010)
About 4,300 (3.1%) of roughly 140,000 compounds were called active. This list was built around the results that the source calls inconclusive (neither active nor inactive); the mix of calls is not that of the screen.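 How the source made its calls: active means readout at or below -70, meaning at least 70% loss of cells showing the perinucleolar compartment, a nuclear body marking cancer cells; inconclusive means readout between -30 and a set limit; inactive means the rest.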

test: High Content Assay for Compounds that inhibit the Assembly of the Perinucleolar Compartment; conditions: PC3M PTB-GFP, PNC prevalence imaging, 16 h; at 10 µM; active compounds read low;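 further: plate controls were DMSO wells for no effect and camptothecin positive control wells for full effect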
How it was run: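 Compounds are pinned in duplicate onto adhered PC3M cells stably expressing GFP-tagged PTB and incubated 16 h at 37 C. Cells are then fixed, nuclei stained with Hoechst, and PNC-positive cells counted.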

| SMILES | activity change (PNC), negative = inhibition |
| --- | --- |
| CC1(C)NC(=O)N(CC(O)CN2CCOCC2)C1=O (stereo not drawn) | inconclusive: -32.9% |
| Cc1nn(-c2cccc(Cl)c2)c(Cl)c1/C=N/NC(=O)c1cccs1 | inconclusive: -32.1% |
| N#Cc1c(SCC(N)=O)nc(-c2ccccc2)c2c1CCCC2 | inactive: -26.3% |
| CC1CCCN(S(=O)(=O)c2ccc3c(c2)CCN3C(=O)C2CCC2)C1 (stereo not drawn) | inconclusive: -50.3% |
| Cc1cccc(OCCCn2c(=O)sc3ccccc32)c1 | inconclusive: -37.7% |
| CC(Oc1ccc(Cl)cc1)C(=O)N/N=C/c1ccsc1 (stereo not drawn) | inactive: -11.8% |
| O=c1[nH]cnc2c1sc(=S)n2-c1ccccc1 | inconclusive: -48.2% |
| COc1ccc(/C=N\NC(=O)COc2ccc(C(C)(C)C)cc2)cc1Cn1nc(C)cc1C | inconclusive: -33.5% |
| CC(c1ccccc1)N(NC(=O)C(O)(c1ccccc1)c1ccccc1)C(=O)c1ccccc1 (stereo not drawn) | inactive: -9.38% |
| Cc1cc(=O)[nH]c(SCc2nc3ccccc3s2)n1 | inactive: 1.89% |
| CCOC(=O)C1CCCN(C(=O)c2ccc(OCC)cc2)C1 (stereo not drawn) | inactive: -15.3% |
| CCOc1ccccc1Nc1nnc(SCC(=O)Nc2cc(C)on2)s1 | inactive: 1.96% |
| Cn1c(NC(=O)/C=C/c2ccccc2)cc(=O)n(C)c1=O | inconclusive: -30.3% |
| Cc1c(NC(=O)c2nn3c(C(F)(F)F)cc(-c4ccccc4)nc3c2Br)c(=O)n(-c2ccccc2)n1C | inconclusive: -46.1% |
| CCOC(=O)CN(C(=O)CSc1nnc(C)n1-c1ccccc1)c1ccccc1 | inconclusive: -38.5% |
| CCN1C/C(=C/c2cccc([N+](=O)[O-])c2)C(=O)/C(=C/c2cccc([N+](=O)[O-])c2)C1 | active: -123% |
| CCCc1ccc(OCc2nc(-c3ccc(NC(=O)c4cccs4)cc3)no2)cc1 | active: -90.8% |
| CCOC(=O)c1c(NC(=O)CN2C(=O)NC(C)(c3ccccc3)C2=O)sc(C)c1C (stereo not drawn) | inconclusive: -62.3% |
| COc1cc(/C=C(\C#N)c2nc3c(s2)CCCC3)ccc1O | inactive: -27.9% |
| CCN(CC)CCn1c(O)c(N=O)c2ccccc21 | inconclusive: -55% |

| SMILES | activity change (PNC), negative = inhibition |
| --- | --- |
| COC(=O)C1=C(C)Nc2c(c(=O)n(C)c(=O)n2C)C1c1ccc(Cl)cc1 (stereo not drawn) | inconclusive: -63.4% |
| CC1CCCCN1C(=O)CN1C(=O)CN(C)C(=O)c2ccccc21 (stereo not drawn) | inconclusive: -36.8% |
| Cn1c(=O)c2c(nc(CN3CCN(C(=O)c4ccco4)CC3)n2Cc2cccc(Cl)c2)n(C)c1=O | inconclusive: -38% |
| O=C1C2C3CCC(C3NCc3ccccc3)C2C(=O)N1Cc1ccccc1 (stereo not drawn) | inactive: -21.9% |
| COc1ccc(NC(=O)c2ccccc2C)c(OC)c1 | inconclusive: -51.9% |
| CCn1c(=O)n(CC)c2cc(S(=O)(=O)Nc3ccccc3C)c(C)cc21 | inconclusive: -53.5% |
| COc1ccc(C2C3=C(CC(C)(C)CC3=O)Oc3ncn(Cc4ccccc4)c(=N)c32)cc1 (stereo not drawn) | inactive: -27.3% |
| COc1ccc(CCN2C(=O)C3CC(C)=C(C)CC3C2=O)cc1OC (stereo not drawn) | inactive: -23.1% |
| N#CCCCSc1nnc(-c2ccc(Cl)cc2)n1-c1ccccc1 | inconclusive: -33.2% |
| CC(NC(=O)Nc1ccccc1)c1ccccc1 (stereo not drawn) | inactive: -11.3% |
| O=C(CN1C(=O)COc2ccccc21)NCCCN1CCN(Cc2ccccc2)CC1 | inactive: 39.9% |
| Cc1ccc(C)c(NC(=O)COc2cccc3c2CCN(Cc2ccccc2)C3=O)c1 | inactive: -6.52% |
| CC(=O)c1c(N2CCCCC2)nc(=O)n(-c2ccccc2)c1C | inconclusive: -70.2% |
| Cc1ccc(C2Nc3ccccc3C(=O)N2Cc2ccco2)cc1 (stereo not drawn) | inactive: 52.5% |
| CC(=O)N1N=C(c2cccc([N+](=O)[O-])c2)OC1(C)CC(=O)Nc1ccccc1 (stereo not drawn) | inconclusive: -62.1% |
| O=C(CN1C(=O)S/C(=C\C=C\c2ccccc2)C1=O)Nc1cccc(O)c1 | inactive: -18.2% |
| O=C(O)c1ccc(CSc2nnnn2C2CCCCC2)cc1 | inconclusive: -57.2% |
| Cc1c(C(=O)OCC(=O)N2CC(=O)Nc3ccccc32)oc2ccc(Br)cc12 | inactive: 10.7% |
| Nc1nc(-c2cccc(Br)c2)cs1 | inconclusive: -67.5% |
| CCS(=O)(=O)Nc1ccc(Cc2ccncc2)cc1 | inconclusive: -32.5% |

Already shown: an excerpt of the list.

| SMILES | activity change (PNC), negative = inhibition |
| --- | --- |
| CC(=O)N1N=C(c2cccc([N+](=O)[O-])c2)OC1(C)CC(=O)Nc1ccccc1 (stereo not drawn) | inconclusive: -62.1% |
| O=C(CN1C(=O)S/C(=C\C=C\c2ccccc2)C1=O)Nc1cccc(O)c1 | inactive: -18.2% |

Following part:

| SMILES | activity change (PNC), negative = inhibition |
| --- | --- |
| CC(=O)C1=C(N2CCCCC2)CCC1=O | inactive: -6.8% |
| COc1cccc(C2=CC(c3ccccc3)n3ncnc3N2)c1 (stereo not drawn) | inactive: 37.7% |
| CCC(=O)Nc1cccc(NC(=S)NC(=O)c2ccccc2Cl)c1 | inconclusive: -33.9% |
| CCCCNC(=O)C12CCC(C)(C(=O)C1Br)C2(C)C (stereo not drawn) | inconclusive: -41.5% |
| N#CCSc1nc2c(c(=O)n1Cc1ccco1)C1(CCCC1)Cc1ccccc1-2 | inconclusive: -59.5% |
| CCCC(C)C(=O)Nc1ccncc1 (stereo not drawn) | active: -100% |
| CC1CCN(C(c2cccs2)c2nnnn2Cc2ccccc2)CC1 (stereo not drawn) | inactive: -4.94% |
| COc1ccc2c(c1)C1CC(C)(NC(=O)C1C(=O)c1ccccc1)O2 (stereo not drawn) | inconclusive: -40.8% |
| Cc1ccc(N=Cc2c(O)n(-c3ccc4c(c3)OCO4)c(=O)c3ccccc23)cc1 | inactive: 16.3% |
| O=C(NC(=S)Nc1ccc(S(=O)(=O)N2CCCCC2)cc1)c1cccs1 | inactive: -20% |
| O=S(=O)(NCCOc1ccccc1)c1ccc2ccccc2c1 | inconclusive: -39.6% |
| CC(=O)NCCC(=O)Nc1nc(C)c(Cc2ccc3c(c2)OCO3)s1 | inactive: 32.2% |
| CCOc1cccc(N2C(=O)CC(N3CCN(c4nc5ccccc5s4)CC3)C2=O)c1 (stereo not drawn) | inconclusive: -41.5% |
| COc1ccc(C)cc1NCC(=O)Nc1ccc(C(C)(C)C)cc1 | inconclusive: -32.2% |
| COC(=O)c1cc(S(=O)(=O)n2nc(C)cc2C)c(Cl)cc1Cl | inconclusive: -38.9% |
| CC(=O)N[C@@H](CS)C(=O)O | inconclusive: -44.1% |
| CC1CC(=O)N(c2ccc(NCc3ccc(Cl)cc3)c([N+](=O)[O-])c2)C1=O (stereo not drawn) | inconclusive: -70.5% |
| N#Cc1cc2c(nc1SCc1ccncc1)CCC2 | inactive: 0.896% |
